Measured data: PubChem BioAssay AID1159584 (Peter MacCallum Cancer Centre, 2016)
In all, the deposit lists about 18,000 reagents; this is a random part of them. Not all columns of the deposit are shown. Not stated in the record: the amount of reagent, the time to read-out.

Test: 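Genes whose loss is lethal only together with E-cadherin loss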 (primary screen)
Cells: human MCF10A breast epithelial cells, parental and CDH1-null
Reagent: siRNA against human genes
Measured: 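ATP luminescence (CellTiter-Glo) viability per line relative to mean mock wells over all plates, and the ratio of CDH1-null to parental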
Direction: CDH1-null / parental viability ratio: higher = CDH1-null cells survive relatively better than parental

CENATAC
- CDH1-null / parental viability ratio: 0.84

ANKRD20A1
- CDH1-null / parental viability ratio: 1

NEK4
- CDH1-null / parental viability ratio: 0.77

MYRF
- CDH1-null / parental viability ratio: 0.87

GPR153
- CDH1-null / parental viability ratio: 0.76

TCEAL3
- CDH1-null / parental viability ratio: 1.01

COPS2
- CDH1-null / parental viability ratio: 0.94

NANP
- CDH1-null / parental viability ratio: 1.53

PDZD8
- CDH1-null / parental viability ratio: 1.22

ASAH2B
- CDH1-null / parental viability ratio: 0.82

CCL19
- CDH1-null / parental viability ratio: 1.17

HOXA11
- CDH1-null / parental viability ratio: 0.84

RDH13
- CDH1-null / parental viability ratio: 0.79

PSPH
- CDH1-null / parental viability ratio: 1.48

SMIM43
- CDH1-null / parental viability ratio: 0.92

MYH9
- CDH1-null / parental viability ratio: 0.91

JKAMP
- CDH1-null / parental viability ratio: 0.69

TAS2R10
- CDH1-null / parental viability ratio: 1.33

CITED1
- CDH1-null / parental viability ratio: 1.36

LCE1E
- CDH1-null / parental viability ratio: 0.78

SUPT7L
- CDH1-null / parental viability ratio: 0.86

CLLU1
- CDH1-null / parental viability ratio: 0.78

ANKIB1
- CDH1-null / parental viability ratio: 0.92

KRT36
- CDH1-null / parental viability ratio: 1.24

AMACR
- CDH1-null / parental viability ratio: 0.99

DYNC1I1
- CDH1-null / parental viability ratio: 0.88

MAGI1
- CDH1-null / parental viability ratio: 0.85

ZNF681
- CDH1-null / parental viability ratio: 1.03

S100B
- CDH1-null / parental viability ratio: 1

KCNAB2
- CDH1-null / parental viability ratio: 1.18

ENTPD2
- CDH1-null / parental viability ratio: 1.11

TREML4
- CDH1-null / parental viability ratio: 1.1

KCNK1
- CDH1-null / parental viability ratio: 1.03

TMPRSS11D
- CDH1-null / parental viability ratio: 1.39

CYP46A1
- CDH1-null / parental viability ratio: 0.99

Quoted from above, 5 entries:
MAGI1
- CDH1-null / parental viability ratio: 0.85

ZNF681
- CDH1-null / parental viability ratio: 1.03

S100B
- CDH1-null / parental viability ratio: 1

KCNAB2
- CDH1-null / parental viability ratio: 1.18

ENTPD2
- CDH1-null / parental viability ratio: 1.11
